The amount applied is not stated for every result.
test system: HepG2 cells; assay: Glu/Gal assay: cellular ATP (CellTiter-Glo) after 24 h in glucose or galactose media; settings: Glu/Gal AC50 ratio

Row | Structure (SMILES) | AC50 Fold Change
1 | CN(C)CCCN1c2ccccc2Sc2ccc(Cl)cc21 [Chlorpromazine] | 0.941
2 | CN1CCN(C2=Nc3cc(Cl)ccc3Nc3ccccc32)CC1 [Clozapine] | 0.933
3 | COC(=O)[C@H]1[C@H]2C[C@@H]3c4[nH]c5cc(OC)ccc5c4CCN3C[C@H]2C[C@@H](OC(=O)c2cc(OC)c(OC)c(OC)c2)[C@@H]1OC [Reserpine] | 0.619
4 | C=C(C)[C@H]1Cc2c(ccc3c2O[C@@H]2COc4cc(OC)c(OC)cc4[C@@H]2C3=O)O1 [Rotenone] | 4600
5 | CN1CCN(CCCN2c3ccccc3Sc3ccc(C(F)(F)F)cc32)CC1 [Trifluoperazine] | 0.885

Reference: paper PMC10741027, “Risk Assessment of Psychotropic Drugs on Mitochondrial Function Using In Vitro Assays” (Biomedicines, 2023)
